Results are given in words; binding and its absence hold for the method and conditions named. Binding seen in cells or lysates may run through a third protein. Here binding means that the protein was enriched with, or labelled near, the bait; the list need not be complete. No binding means not detected with the bait.
Target: T1, phosphoY458 Kv1.2 (mouse), P63141
T1 chain: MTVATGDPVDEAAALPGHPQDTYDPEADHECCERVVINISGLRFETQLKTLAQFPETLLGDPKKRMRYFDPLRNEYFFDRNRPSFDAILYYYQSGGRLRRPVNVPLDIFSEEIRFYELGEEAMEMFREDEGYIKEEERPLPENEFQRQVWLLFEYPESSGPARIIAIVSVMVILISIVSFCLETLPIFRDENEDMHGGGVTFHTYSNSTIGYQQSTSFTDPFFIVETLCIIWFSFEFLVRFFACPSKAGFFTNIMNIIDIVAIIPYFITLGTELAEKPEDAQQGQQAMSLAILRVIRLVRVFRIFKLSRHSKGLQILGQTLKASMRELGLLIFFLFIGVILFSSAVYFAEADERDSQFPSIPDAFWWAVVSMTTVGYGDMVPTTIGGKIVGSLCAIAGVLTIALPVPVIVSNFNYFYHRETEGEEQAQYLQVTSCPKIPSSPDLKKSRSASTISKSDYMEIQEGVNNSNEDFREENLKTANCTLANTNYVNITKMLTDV
Assay: affinity purification with mass spectrometry
Details: remark: other sources report otherwise

B1: Caspr2, Q9CPW0 28-1332 (protein)
chain: APSTFQKCDEPLISGLPHVSFSSSSSLSSSYAPGYAKINKRGGAGGWSPSDSDHYQWLQVDFGNRKQISAIATQGRYSSSDWVTQYRMLYSDTGRNWKPYHQDGNIWAFPGNINSDSVVRHDLQHAVVARYVRIVPLDWNGEGHIGLRAEVYGCAYWADVINFDGHGVLPYRFRNKKMKTLKDVIALKFKTSESEGVLLHGEGQQGDYITLELKKAKLVLSLNLGSNQLGPIYGHTSVTSGSLLDDHHWHSVLIERQGRSINLTLDRSMQHFRTNGEFDYLDLDYEITFGGIPFSGKPSSSNRKNFKGCMESINYNGVNITDLARRKKLGPSNMGNLSFSCVEPYTVPVFFNATSYLEVPGRLNQDLFSVSFQFRTWNPSGLLLFSHFADNLGNVEIDLVESKVGVHINNTQTKTSQIDISSGSGLNDGQWHEVRFLAKENFAVLTIDGDEASAVRTNSPLQVKTGEKYFFGGFLNHMNNASYSALQPSFQGCMQLIQVDDQLVNLYEVAQRKPGSFANVTIDMCAIIDRCVPNHCEHGGKCSQTWDSFKCTCDETGYSGATCHNSIYEPSCEAYKHLGQTSNYYWIDPDGSGPLGPLKVYCNMTEDKVWTIVSHDLQMQTTVVGYNPEKYSVTQLIYSASMDQISAITSSAEYCEQYVSYFCRMSRLLNTPDGSPYTWWVGKANEKHYYWGGSEPGIQKCACGIERNCTDPKYYCNCDADYKQWRKDAGFLSYKDHLPVSQVVVGDTDRQGSEAKLSVGPLRCQGDRNYWNAASFPNPSSYLHFSTFQGETSADISFYFKTLIPRGVFLENLGNTDFIKLELKSATEVSFSFDVGNGPVEIVVRSPSPLNDDQWHRVTAERNVKQASLQVDRLPQQIRKAPTEGHTRLELYSQLFVGGAGGQQGFLGCIRSLRMNGVTLDLEERAKVTSGFKSGCSGHCTSYGANCENGGKCIEKYHGYSCDCSNTAYDGTFCNKDVGAFFEEGMWLRYNFQAPAVTARDTGSRAENSADQQQHLAPDLAQEQIHFSFSTTKAPCILLYVSSLTTDFLAVLVKPTGNLQIRYNLGGTREPFNIDVDHRNMANGQPHSVNITRHERTIILKLDHYPAVGYHLPSSSDTLFNSPKSLFLGKVIETGKIDQEIHKYNTPGFTGCLSRVQFNHIAPLKAALRQTNASAHVHIQGELVESNCGASPLTLSPMSSATDPWHLDHLDSASADFPYNPGQGQAIRNGVNRNSAIIGGVIAVVIFTILCTLVFLIRYMFRHKGTYHTNEAKGAESAESADAAIMNNDPNFTETIDESKKEWLI
modifications: here or on the partner: phosphotyrosine at 458
binding: no binding

From article doi:10.1101/2025.10.29.685130
